# Data taken from the supplement of paper PMC11438910.
# This is one part of the list. Only a few entries rise above the background.
# B1: 4-99.1 (protein)
# chain 1: QVQLQESGPGLVKPSETLSLTCAVSGDSISSGYFWGWIRQPPGKGLEYIGYISGESGNTYDNPSLKSRVTISKDTSKNQFSLNLRSVTAADTAVYYCARRTVYIGFDYWGQGVLVTVSS
# chain 2: QAAPTQPPSVSGSPGQSVTISCTGTSSDIGYYNAVSWYQQHPGKAPKLMIYEVSKRPSGVSDRFSGSKSGTTASLTISGLQAEDEADYYCSSYAGTNTYIFGAGTRLTVL
# Tests used:
# Test in all cases: fluorescence intensity of antibody binding to polysaccharide-coupled beads; higher = stronger binding
# [1] = molecular target: pneumococcal polysaccharide Pn19B
# [2] = molecular target: pneumococcal polysaccharide Pn19C
# [3] = molecular target: pneumococcal polysaccharide Pn19F
# [4] = molecular target: pneumococcal polysaccharide Pn2
# [5] = molecular target: pneumococcal polysaccharide Pn20A
# [6] = molecular target: pneumococcal polysaccharide Pn20B
# [7] = molecular target: pneumococcal polysaccharide Pn21
# [8] = molecular target: pneumococcal polysaccharide Pn22A
# [9] = molecular target: pneumococcal polysaccharide Pn22F
# [10] = molecular target: pneumococcal polysaccharide Pn23A
# [11] = molecular target: pneumococcal polysaccharide Pn23B
# [12] = molecular target: pneumococcal polysaccharide Pn23F
# [13] = antibody concentration 0.1 ng/mL
# [14] = antibody concentration 0.534724 ng/mL
# [15] = antibody concentration 2.8593 ng/mL
# [16] = antibody concentration 15.2894 ng/mL
# [17] = antibody concentration 81.7561 ng/mL
# [18] = antibody concentration 437.17 ng/mL
# [19] = antibody concentration 2337.65 ng/mL
# [20] = antibody concentration 12500 ng/mL
binder,measurement,setting,value
B1,fluorescence intensity,[1]; [13],30 MFI
same,fluorescence intensity,[1]; [14],30.5 MFI
same,fluorescence intensity,[1]; [15],28 MFI
same,fluorescence intensity,[1]; [16],30.2 MFI
same,fluorescence intensity,[1]; [17],28.2 MFI
same,fluorescence intensity,[1]; [18],32.5 MFI
same,fluorescence intensity,[1]; [19],56 MFI
same,fluorescence intensity,[1]; [20],321 MFI
same,fluorescence intensity,[2]; [13],27 MFI
same,fluorescence intensity,[2]; [14],23.5 MFI
same,fluorescence intensity,[2]; [15],25.5 MFI
same,fluorescence intensity,[2]; [16],26.5 MFI
same,fluorescence intensity,[2]; [17],27 MFI
same,fluorescence intensity,[2]; [18],27 MFI
same,fluorescence intensity,[2]; [19],42 MFI
same,fluorescence intensity,[2]; [20],195 MFI
same,fluorescence intensity,[3]; [13],25.2 MFI
same,fluorescence intensity,[3]; [14],24.5 MFI
same,fluorescence intensity,[3]; [15],25 MFI
same,fluorescence intensity,[3]; [16],26.5 MFI
same,fluorescence intensity,[3]; [17],24.5 MFI
same,fluorescence intensity,[3]; [18],27 MFI
same,fluorescence intensity,[3]; [19],33.5 MFI
same,fluorescence intensity,[3]; [20],45 MFI
same,fluorescence intensity,[4]; [13],20 MFI
same,fluorescence intensity,[4]; [14],20.5 MFI
same,fluorescence intensity,[4]; [15],20.5 MFI
same,fluorescence intensity,[4]; [16],19.5 MFI
same,fluorescence intensity,[4]; [17],21 MFI
same,fluorescence intensity,[4]; [18],22 MFI
same,fluorescence intensity,[4]; [19],22.5 MFI
same,fluorescence intensity,[4]; [20],30 MFI
same,fluorescence intensity,[5]; [13],21.5 MFI
same,fluorescence intensity,[5]; [14],22 MFI
same,fluorescence intensity,[5]; [15],22 MFI
same,fluorescence intensity,[5]; [16],23.2 MFI
same,fluorescence intensity,[5]; [17],22.5 MFI
same,fluorescence intensity,[5]; [18],25 MFI
same,fluorescence intensity,[5]; [19],39 MFI
same,fluorescence intensity,[5]; [20],208 MFI
same,fluorescence intensity,[6]; [13],24.5 MFI
same,fluorescence intensity,[6]; [14],22.8 MFI
same,fluorescence intensity,[6]; [15],23.5 MFI
same,fluorescence intensity,[6]; [16],24 MFI
same,fluorescence intensity,[6]; [17],23.5 MFI
same,fluorescence intensity,[6]; [18],25 MFI
same,fluorescence intensity,[6]; [19],26.5 MFI
same,fluorescence intensity,[6]; [20],53 MFI
same,fluorescence intensity,[7]; [13],20 MFI
same,fluorescence intensity,[7]; [14],19.5 MFI
same,fluorescence intensity,[7]; [15],19.5 MFI
same,fluorescence intensity,[7]; [16],20 MFI
same,fluorescence intensity,[7]; [17],22 MFI
same,fluorescence intensity,[7]; [18],20.8 MFI
same,fluorescence intensity,[7]; [19],22.5 MFI
same,fluorescence intensity,[7]; [20],28.5 MFI
same,fluorescence intensity,[8]; [13],22 MFI
same,fluorescence intensity,[8]; [14],23.5 MFI
same,fluorescence intensity,[8]; [15],22.5 MFI
same,fluorescence intensity,[8]; [16],20 MFI
same,fluorescence intensity,[8]; [17],21.5 MFI
same,fluorescence intensity,[8]; [18],22 MFI
same,fluorescence intensity,[8]; [19],28.5 MFI
same,fluorescence intensity,[8]; [20],93 MFI
same,fluorescence intensity,[9]; [13],29.2 MFI
same,fluorescence intensity,[9]; [14],30.8 MFI
same,fluorescence intensity,[9]; [15],29.8 MFI
same,fluorescence intensity,[9]; [16],32 MFI
same,fluorescence intensity,[9]; [17],33 MFI
same,fluorescence intensity,[9]; [18],30.2 MFI
same,fluorescence intensity,[9]; [19],32.2 MFI
same,fluorescence intensity,[9]; [20],52.8 MFI
same,fluorescence intensity,[10]; [13],25 MFI
same,fluorescence intensity,[10]; [14],26 MFI
same,fluorescence intensity,[10]; [15],25.8 MFI
same,fluorescence intensity,[10]; [16],25.2 MFI
same,fluorescence intensity,[10]; [17],24 MFI
same,fluorescence intensity,[10]; [18],31.8 MFI
same,fluorescence intensity,[10]; [19],44.5 MFI
same,fluorescence intensity,[10]; [20],65.2 MFI
same,fluorescence intensity,[11]; [13],32 MFI
same,fluorescence intensity,[11]; [14],31 MFI
same,fluorescence intensity,[11]; [15],31.5 MFI
same,fluorescence intensity,[11]; [16],31 MFI
same,fluorescence intensity,[11]; [17],28.2 MFI
same,fluorescence intensity,[11]; [18],31.5 MFI
same,fluorescence intensity,[11]; [19],34 MFI
same,fluorescence intensity,[11]; [20],42 MFI
same,fluorescence intensity,[12]; [13],19.5 MFI
same,fluorescence intensity,[12]; [14],17.2 MFI

# Given tab-delimited: entries from further up
binder	measurement	setting	value
B1	fluorescence intensity	[2]; [20]	195 MFI
same	fluorescence intensity	[3]; [13]	25.2 MFI
same	fluorescence intensity	[3]; [14]	24.5 MFI
same	fluorescence intensity	[3]; [15]	25 MFI
same	fluorescence intensity	[3]; [16]	26.5 MFI
same	fluorescence intensity	[3]; [17]	24.5 MFI
same	fluorescence intensity	[3]; [18]	27 MFI
same	fluorescence intensity	[3]; [19]	33.5 MFI
same	fluorescence intensity	[3]; [20]	45 MFI
same	fluorescence intensity	[4]; [13]	20 MFI
same	fluorescence intensity	[4]; [14]	20.5 MFI
same	fluorescence intensity	[4]; [15]	20.5 MFI
same	fluorescence intensity	[4]; [16]	19.5 MFI
same	fluorescence intensity	[4]; [17]	21 MFI
same	fluorescence intensity	[4]; [18]	22 MFI
same	fluorescence intensity	[4]; [19]	22.5 MFI
same	fluorescence intensity	[4]; [20]	30 MFI
